Test results as given in the supplement of paper PMC7661543.
Differences between knockout arms are mostly noise.

Tested on: HCC-38
Test: relative cell number vs DMSO control (72 h) (% of DMSO); higher = less growth inhibition (more cells)
Method: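 QMAP-Seq: a pool of 5 breast cancer cell lines (ZR-75-1, SKBR3, HCC-38, MDA-MB-231, BT-20), each carrying 12 doxycycline-inducible Cas9 sgRNA perturbations (11 knockouts plus non-targeting sgNT), was treated with compounds for 72 h at four 10-fold doses (10 nM-10 uM or 1 nM-1 uM range). Barcodes were amplified and sequenced, and cell number was interpolated from 293T spike-in standard curves. The result is expressed as % of the median of DMSO wells. Two biological replicates.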

CC(C)(C)c1cnc(CSc2cnc(NC(=O)C3CCNCC3)s2)o1 [SNS032]
Settings	relative cell number
sgRNA knockout: sgATF3, 10 nM	108
sgRNA knockout: sgATF3, 100 nM	86
sgRNA knockout: sgATF3, 1000 nM	16.4
sgRNA knockout: sgATF3, 10000 nM	28.1
sgRNA knockout: sgATF4, 10 nM	107
sgRNA knockout: sgATF4, 100 nM	85.9
sgRNA knockout: sgATF4, 1000 nM	20.7
sgRNA knockout: sgATF4, 10000 nM	24.12
sgRNA knockout: sgATF6, 10 nM	106
sgRNA knockout: sgATF6, 100 nM	83.5
sgRNA knockout: sgATF6, 1000 nM	24
sgRNA knockout: sgATF6, 10000 nM	28.7
sgRNA knockout: sgATG7, 10 nM	107
sgRNA knockout: sgATG7, 100 nM	85.9
sgRNA knockout: sgATG7, 1000 nM	18.5
sgRNA knockout: sgATG7, 10000 nM	26.8
sgRNA knockout: sgERN1, 10 nM	107
sgRNA knockout: sgERN1, 100 nM	86.49
sgRNA knockout: sgERN1, 1000 nM	18.8
sgRNA knockout: sgERN1, 10000 nM	28.3
sgRNA knockout: sgHSF1, 10 nM	84.6
sgRNA knockout: sgHSF1, 100 nM	81.6
sgRNA knockout: sgHSF1, 1000 nM	11.1
sgRNA knockout: sgHSF1, 10000 nM	24.9
sgRNA knockout: sgHSF2, 10 nM	101
sgRNA knockout: sgHSF2, 100 nM	96.9
sgRNA knockout: sgHSF2, 1000 nM	16.7
sgRNA knockout: sgHSF2, 10000 nM	29.7
sgRNA knockout: sgKEAP1, 10 nM	107
sgRNA knockout: sgKEAP1, 100 nM	73.7
sgRNA knockout: sgKEAP1, 1000 nM	13.2
sgRNA knockout: sgKEAP1, 10000 nM	22.5
sgRNA knockout: sgNFE2L2, 10 nM	102
sgRNA knockout: sgNFE2L2, 100 nM	81.6
sgRNA knockout: sgNFE2L2, 1000 nM	20.5
sgRNA knockout: sgNFE2L2, 10000 nM	24.3
sgRNA knockout: sgSLC35F2, 10 nM	97.7
sgRNA knockout: sgSLC35F2, 100 nM	85.6
sgRNA knockout: sgSLC35F2, 1000 nM	21.3
sgRNA knockout: sgSLC35F2, 10000 nM	28.4
sgRNA knockout: sgXBP1, 10 nM	101
sgRNA knockout: sgXBP1, 100 nM	83.8
sgRNA knockout: sgXBP1, 1000 nM	18.6
sgRNA knockout: sgXBP1, 10000 nM	26

COc1cc2nccc(Oc3ccc(NC(=O)Nc4cc(C)on4)c(Cl)c3)c2cc1OC [Tivozanib]
Settings	relative cell number
sgRNA knockout: sgATF3, 10 nM	96.6
sgRNA knockout: sgATF3, 100 nM	96.9
sgRNA knockout: sgATF3, 1000 nM	103
sgRNA knockout: sgATF3, 10000 nM	50.2
sgRNA knockout: sgATF4, 10 nM	102
sgRNA knockout: sgATF4, 100 nM	85.16
sgRNA knockout: sgATF4, 1000 nM	93.34
sgRNA knockout: sgATF4, 10000 nM	50
sgRNA knockout: sgATF6, 10 nM	98.2
sgRNA knockout: sgATF6, 100 nM	103
sgRNA knockout: sgATF6, 1000 nM	125
sgRNA knockout: sgATF6, 10000 nM	58.1
sgRNA knockout: sgATG7, 10 nM	92.9
sgRNA knockout: sgATG7, 100 nM	96.1
sgRNA knockout: sgATG7, 1000 nM	103
sgRNA knockout: sgATG7, 10000 nM	52.7
sgRNA knockout: sgERN1, 10 nM	98.9
sgRNA knockout: sgERN1, 100 nM	91.6
sgRNA knockout: sgERN1, 1000 nM	95.4
sgRNA knockout: sgERN1, 10000 nM	56.1
sgRNA knockout: sgHSF1, 10 nM	91.6
sgRNA knockout: sgHSF1, 100 nM	102
sgRNA knockout: sgHSF1, 1000 nM	100
sgRNA knockout: sgHSF1, 10000 nM	70.3
sgRNA knockout: sgHSF2, 10 nM	90.1
sgRNA knockout: sgHSF2, 100 nM	94.7
sgRNA knockout: sgHSF2, 1000 nM	105
sgRNA knockout: sgHSF2, 10000 nM	59.69
sgRNA knockout: sgKEAP1, 10 nM	108
sgRNA knockout: sgKEAP1, 100 nM	98.4
sgRNA knockout: sgKEAP1, 1000 nM	91.8
sgRNA knockout: sgKEAP1, 10000 nM	62.5
sgRNA knockout: sgNFE2L2, 10 nM	98.6
sgRNA knockout: sgNFE2L2, 100 nM	94.4
sgRNA knockout: sgNFE2L2, 1000 nM	99.2
sgRNA knockout: sgNFE2L2, 10000 nM	50.3
sgRNA knockout: sgSLC35F2, 10 nM	92.4
sgRNA knockout: sgSLC35F2, 100 nM	93.7
sgRNA knockout: sgSLC35F2, 1000 nM	104
sgRNA knockout: sgSLC35F2, 10000 nM	55.5
sgRNA knockout: sgXBP1, 10 nM	94.9
sgRNA knockout: sgXBP1, 100 nM	92.3
sgRNA knockout: sgXBP1, 1000 nM	98.59
sgRNA knockout: sgXBP1, 10000 nM	57.08

CC(=O)Nc1cccc(-n2c(=O)n(C3CC3)c(=O)c3c(Nc4ccc(I)cc4F)n(C)c(=O)c(C)c32)c1 [Trametinib]
Settings	relative cell number
sgRNA knockout: sgATF3, 10 nM	97.3
sgRNA knockout: sgATF3, 100 nM	86.1
sgRNA knockout: sgATF3, 1000 nM	93
sgRNA knockout: sgATF3, 10000 nM	79.6
sgRNA knockout: sgATF4, 10 nM	99.59
sgRNA knockout: sgATF4, 100 nM	75.8
sgRNA knockout: sgATF4, 1000 nM	77.3
sgRNA knockout: sgATF4, 10000 nM	74.9
sgRNA knockout: sgATF6, 10 nM	104
sgRNA knockout: sgATF6, 100 nM	80
sgRNA knockout: sgATF6, 1000 nM	88.7
sgRNA knockout: sgATF6, 10000 nM	78.5
sgRNA knockout: sgATG7, 10 nM	91.8
sgRNA knockout: sgATG7, 100 nM	77.2
sgRNA knockout: sgATG7, 1000 nM	79.8
sgRNA knockout: sgATG7, 10000 nM	79.08
sgRNA knockout: sgERN1, 10 nM	99.9
sgRNA knockout: sgERN1, 100 nM	81.5
sgRNA knockout: sgERN1, 1000 nM	91.6
sgRNA knockout: sgERN1, 10000 nM	74.2
sgRNA knockout: sgHSF1, 10 nM	94.3
sgRNA knockout: sgHSF1, 100 nM	87.9
sgRNA knockout: sgHSF1, 1000 nM	84
sgRNA knockout: sgHSF1, 10000 nM	59.8
sgRNA knockout: sgHSF2, 10 nM	98.7
sgRNA knockout: sgHSF2, 100 nM	84.7
sgRNA knockout: sgHSF2, 1000 nM	91
sgRNA knockout: sgHSF2, 10000 nM	72.5
sgRNA knockout: sgKEAP1, 10 nM	84.95
sgRNA knockout: sgKEAP1, 100 nM	78.3
sgRNA knockout: sgKEAP1, 1000 nM	81.7
sgRNA knockout: sgKEAP1, 10000 nM	61.7
sgRNA knockout: sgNFE2L2, 10 nM	93.2
sgRNA knockout: sgNFE2L2, 100 nM	82.9
sgRNA knockout: sgNFE2L2, 1000 nM	77.7
sgRNA knockout: sgNFE2L2, 10000 nM	80.2
sgRNA knockout: sgSLC35F2, 10 nM	96.1
sgRNA knockout: sgSLC35F2, 100 nM	78.8
sgRNA knockout: sgSLC35F2, 1000 nM	82.1
sgRNA knockout: sgSLC35F2, 10000 nM	65.3
sgRNA knockout: sgXBP1, 10 nM	90.1
sgRNA knockout: sgXBP1, 100 nM	79.1
sgRNA knockout: sgXBP1, 1000 nM	86.9
sgRNA knockout: sgXBP1, 10000 nM	75.1
